Reference: PMC2935449

By UniProt entry, the sequences of proteins in these tests, tags left out.
UniProt Q9HFE8: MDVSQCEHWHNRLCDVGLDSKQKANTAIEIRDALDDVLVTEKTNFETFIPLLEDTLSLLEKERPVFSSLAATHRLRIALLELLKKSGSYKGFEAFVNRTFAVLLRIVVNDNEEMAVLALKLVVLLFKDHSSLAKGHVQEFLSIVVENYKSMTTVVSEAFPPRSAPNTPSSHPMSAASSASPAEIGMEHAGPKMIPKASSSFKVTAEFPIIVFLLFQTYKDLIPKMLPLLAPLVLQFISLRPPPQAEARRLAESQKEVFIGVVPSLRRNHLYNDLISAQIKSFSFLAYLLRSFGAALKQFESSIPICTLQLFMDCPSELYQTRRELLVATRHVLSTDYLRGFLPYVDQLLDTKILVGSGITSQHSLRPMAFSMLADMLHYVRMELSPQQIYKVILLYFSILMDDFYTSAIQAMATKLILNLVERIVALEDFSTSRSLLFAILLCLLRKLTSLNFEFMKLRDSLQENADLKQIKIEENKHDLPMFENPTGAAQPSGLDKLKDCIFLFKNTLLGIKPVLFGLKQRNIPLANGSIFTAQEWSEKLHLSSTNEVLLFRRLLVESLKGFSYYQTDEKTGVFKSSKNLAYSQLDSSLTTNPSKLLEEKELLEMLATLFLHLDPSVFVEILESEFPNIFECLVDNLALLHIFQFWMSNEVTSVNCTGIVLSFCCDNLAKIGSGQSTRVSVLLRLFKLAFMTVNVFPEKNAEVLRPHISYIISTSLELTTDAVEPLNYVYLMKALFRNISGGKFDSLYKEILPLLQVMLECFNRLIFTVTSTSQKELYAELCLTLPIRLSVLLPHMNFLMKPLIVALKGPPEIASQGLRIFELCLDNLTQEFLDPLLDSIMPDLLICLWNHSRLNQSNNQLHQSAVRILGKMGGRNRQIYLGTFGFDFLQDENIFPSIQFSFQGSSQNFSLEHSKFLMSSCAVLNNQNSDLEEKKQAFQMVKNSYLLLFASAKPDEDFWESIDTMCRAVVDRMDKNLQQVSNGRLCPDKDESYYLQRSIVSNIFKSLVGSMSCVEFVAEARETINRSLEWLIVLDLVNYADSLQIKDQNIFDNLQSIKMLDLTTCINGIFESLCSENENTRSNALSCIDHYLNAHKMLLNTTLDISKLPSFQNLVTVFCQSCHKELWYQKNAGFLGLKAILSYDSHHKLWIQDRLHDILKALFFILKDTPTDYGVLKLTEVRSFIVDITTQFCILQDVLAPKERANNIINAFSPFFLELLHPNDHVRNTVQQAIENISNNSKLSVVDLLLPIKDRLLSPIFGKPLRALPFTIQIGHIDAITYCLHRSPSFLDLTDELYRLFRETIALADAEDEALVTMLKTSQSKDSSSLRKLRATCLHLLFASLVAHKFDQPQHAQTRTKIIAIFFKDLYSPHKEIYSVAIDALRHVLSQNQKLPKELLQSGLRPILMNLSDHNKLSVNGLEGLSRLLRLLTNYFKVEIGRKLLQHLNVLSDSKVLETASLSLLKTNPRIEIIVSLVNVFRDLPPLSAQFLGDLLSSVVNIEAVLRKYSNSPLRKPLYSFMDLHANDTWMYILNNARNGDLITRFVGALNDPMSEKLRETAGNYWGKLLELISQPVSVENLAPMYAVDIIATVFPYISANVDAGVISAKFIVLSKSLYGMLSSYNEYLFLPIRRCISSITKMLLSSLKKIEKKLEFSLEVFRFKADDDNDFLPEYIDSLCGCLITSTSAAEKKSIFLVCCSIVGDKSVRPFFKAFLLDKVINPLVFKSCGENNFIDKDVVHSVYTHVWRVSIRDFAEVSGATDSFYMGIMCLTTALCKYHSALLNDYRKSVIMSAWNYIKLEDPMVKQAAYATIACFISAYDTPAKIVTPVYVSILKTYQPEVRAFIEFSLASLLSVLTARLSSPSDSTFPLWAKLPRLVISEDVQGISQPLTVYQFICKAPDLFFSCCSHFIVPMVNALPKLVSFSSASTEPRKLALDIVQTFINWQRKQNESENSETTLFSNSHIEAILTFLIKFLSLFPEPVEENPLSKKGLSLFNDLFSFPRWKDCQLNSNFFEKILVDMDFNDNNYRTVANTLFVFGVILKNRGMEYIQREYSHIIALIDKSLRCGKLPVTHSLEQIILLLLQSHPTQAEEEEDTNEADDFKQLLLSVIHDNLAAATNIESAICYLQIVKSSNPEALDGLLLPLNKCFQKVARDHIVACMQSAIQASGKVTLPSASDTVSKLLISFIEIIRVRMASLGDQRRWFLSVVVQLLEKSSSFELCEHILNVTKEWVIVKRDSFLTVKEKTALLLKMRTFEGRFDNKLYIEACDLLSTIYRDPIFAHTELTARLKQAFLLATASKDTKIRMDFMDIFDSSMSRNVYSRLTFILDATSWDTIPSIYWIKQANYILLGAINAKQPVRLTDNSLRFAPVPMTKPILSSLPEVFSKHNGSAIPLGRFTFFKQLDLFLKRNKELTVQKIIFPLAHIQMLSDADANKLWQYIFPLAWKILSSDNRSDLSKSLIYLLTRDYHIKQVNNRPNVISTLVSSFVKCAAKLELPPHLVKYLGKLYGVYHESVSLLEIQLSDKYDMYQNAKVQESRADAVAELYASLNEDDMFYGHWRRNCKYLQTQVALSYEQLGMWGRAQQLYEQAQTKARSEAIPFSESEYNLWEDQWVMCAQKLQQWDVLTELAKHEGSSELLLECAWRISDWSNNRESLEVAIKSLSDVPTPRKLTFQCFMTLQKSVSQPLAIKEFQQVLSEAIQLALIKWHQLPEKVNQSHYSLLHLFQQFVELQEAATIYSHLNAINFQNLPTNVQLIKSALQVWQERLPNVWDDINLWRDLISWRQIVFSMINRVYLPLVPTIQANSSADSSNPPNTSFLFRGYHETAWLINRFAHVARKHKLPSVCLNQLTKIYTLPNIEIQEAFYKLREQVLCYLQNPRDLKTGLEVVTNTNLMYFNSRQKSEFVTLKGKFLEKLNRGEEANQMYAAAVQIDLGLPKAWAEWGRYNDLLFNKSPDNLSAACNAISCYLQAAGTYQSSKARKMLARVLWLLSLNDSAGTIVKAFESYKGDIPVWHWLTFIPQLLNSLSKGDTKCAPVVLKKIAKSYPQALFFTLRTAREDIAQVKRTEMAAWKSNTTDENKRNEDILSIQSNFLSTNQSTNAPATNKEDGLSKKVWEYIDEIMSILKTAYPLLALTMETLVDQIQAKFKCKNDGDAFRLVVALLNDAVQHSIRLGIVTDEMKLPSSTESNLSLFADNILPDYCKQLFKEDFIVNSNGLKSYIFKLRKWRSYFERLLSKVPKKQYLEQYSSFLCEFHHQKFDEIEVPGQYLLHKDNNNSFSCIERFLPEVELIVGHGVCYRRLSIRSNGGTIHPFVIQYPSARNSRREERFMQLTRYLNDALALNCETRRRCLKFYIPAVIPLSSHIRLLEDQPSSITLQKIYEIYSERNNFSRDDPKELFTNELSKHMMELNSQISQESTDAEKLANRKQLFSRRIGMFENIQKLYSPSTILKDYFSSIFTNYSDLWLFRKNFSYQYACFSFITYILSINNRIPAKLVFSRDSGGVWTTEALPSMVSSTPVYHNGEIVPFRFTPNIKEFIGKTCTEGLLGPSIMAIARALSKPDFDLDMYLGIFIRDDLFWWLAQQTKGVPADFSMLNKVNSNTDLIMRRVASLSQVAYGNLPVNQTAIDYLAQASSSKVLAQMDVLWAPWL

T1: Ubp8-TAP (S. pombe) (UniProt Q09738)
T1 sequence: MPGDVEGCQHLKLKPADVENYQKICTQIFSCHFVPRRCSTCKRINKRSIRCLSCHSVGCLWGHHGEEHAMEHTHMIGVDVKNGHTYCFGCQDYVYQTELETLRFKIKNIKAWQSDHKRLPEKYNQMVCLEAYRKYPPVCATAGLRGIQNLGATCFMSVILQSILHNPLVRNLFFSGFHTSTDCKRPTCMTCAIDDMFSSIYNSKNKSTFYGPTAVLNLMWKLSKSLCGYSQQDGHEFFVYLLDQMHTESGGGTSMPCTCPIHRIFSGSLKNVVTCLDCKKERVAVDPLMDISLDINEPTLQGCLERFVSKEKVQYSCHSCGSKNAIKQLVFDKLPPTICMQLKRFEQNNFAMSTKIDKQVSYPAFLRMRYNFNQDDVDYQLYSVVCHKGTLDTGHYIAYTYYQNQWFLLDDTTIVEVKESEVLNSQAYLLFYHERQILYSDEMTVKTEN

T2: Uch2-TAP (S. pombe) (UniProt Q9UUB6)
T2 sequence: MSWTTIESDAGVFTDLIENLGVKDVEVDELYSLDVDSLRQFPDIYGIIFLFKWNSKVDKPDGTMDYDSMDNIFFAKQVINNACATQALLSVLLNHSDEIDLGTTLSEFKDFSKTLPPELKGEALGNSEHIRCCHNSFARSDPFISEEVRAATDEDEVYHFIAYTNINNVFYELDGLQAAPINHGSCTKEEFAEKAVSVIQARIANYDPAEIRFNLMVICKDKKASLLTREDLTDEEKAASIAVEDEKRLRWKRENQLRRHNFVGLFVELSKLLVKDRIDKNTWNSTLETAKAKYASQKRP

T3: Ubp15-TAP (S. pombe) (UniProt Q9UTT1)
T3 sequence: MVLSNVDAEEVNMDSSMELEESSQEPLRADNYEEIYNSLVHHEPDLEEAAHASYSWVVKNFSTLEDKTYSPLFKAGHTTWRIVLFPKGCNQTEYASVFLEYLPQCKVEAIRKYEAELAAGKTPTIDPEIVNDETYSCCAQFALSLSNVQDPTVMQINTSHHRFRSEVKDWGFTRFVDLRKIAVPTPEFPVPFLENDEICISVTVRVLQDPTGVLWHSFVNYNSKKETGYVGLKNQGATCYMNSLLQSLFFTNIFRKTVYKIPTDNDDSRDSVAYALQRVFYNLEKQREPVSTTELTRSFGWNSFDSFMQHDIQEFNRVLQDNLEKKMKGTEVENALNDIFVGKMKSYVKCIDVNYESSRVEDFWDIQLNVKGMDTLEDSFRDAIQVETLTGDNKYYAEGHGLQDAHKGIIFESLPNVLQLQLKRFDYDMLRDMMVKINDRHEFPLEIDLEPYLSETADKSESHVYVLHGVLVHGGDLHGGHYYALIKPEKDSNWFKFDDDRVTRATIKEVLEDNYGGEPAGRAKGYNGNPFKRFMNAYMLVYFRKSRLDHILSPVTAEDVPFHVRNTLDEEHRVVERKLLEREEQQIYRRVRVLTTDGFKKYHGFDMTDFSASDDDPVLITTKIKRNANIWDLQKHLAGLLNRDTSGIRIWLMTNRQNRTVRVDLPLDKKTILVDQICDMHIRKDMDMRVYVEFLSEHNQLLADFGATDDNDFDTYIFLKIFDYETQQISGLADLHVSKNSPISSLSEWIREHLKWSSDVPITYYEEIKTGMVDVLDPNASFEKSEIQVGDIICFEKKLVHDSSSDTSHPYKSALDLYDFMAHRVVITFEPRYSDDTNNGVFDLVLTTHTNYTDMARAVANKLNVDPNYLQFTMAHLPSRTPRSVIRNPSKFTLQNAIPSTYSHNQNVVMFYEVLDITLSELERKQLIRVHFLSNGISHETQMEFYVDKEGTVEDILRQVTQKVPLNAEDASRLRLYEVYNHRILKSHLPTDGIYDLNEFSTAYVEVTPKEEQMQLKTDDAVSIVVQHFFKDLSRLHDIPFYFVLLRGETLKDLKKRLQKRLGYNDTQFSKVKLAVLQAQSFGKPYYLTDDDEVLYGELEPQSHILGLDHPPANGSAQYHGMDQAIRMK


Legend:
Assay in all cases: affinity purification with mass spectrometry; bait endogenously TAP-tagged at its C-terminus, tandem affinity purification from native S. pombe lysate, co-purified proteins identified by 2D LC-MS/MS; duplicates, only proteins found in both replicates
Ubp8-TAP (S. pombe) = target: T1, Ubp8-TAP (S. pombe)
Uch2-TAP (S. pombe) = target: T2, Uch2-TAP (S. pombe)
Ubp15-TAP (S. pombe) = target: T3, Ubp15-TAP (S. pombe)

Row | Molecule | binding (Ubp8-TAP (S. pombe)) | binding (Ubp15-TAP (S. pombe)) | also measured
1 | Tra1 (from UniProt Q9HFE8 1-3661) | binds | – | –
2 | Rpn1301 (SPBC342.04) (protein, UniProt Q9Y7Y6 1-291) MSLITFKAGKLRRVPGTKLLRADPEKGYIVMNRDAYGLIHFQWAKRNDLENPEDDIIVFSSECTFEKVTECTTGRAYMLKYPSSAHSLFYWMQEASDDNDTSYAERINSYIKDQDLLDPARSDVATVSDMMEVDTVEQSEPIAQPTESSKESSEIGAPNSDEINSSEAVRNLLATISAQAGFGGSTVDLCEILKPSNLTDLLCQEGVIDRLMPYMPPDTPNNLEGVLAIVSSPQYAQALRSFSQALNSPGGVNIISALGLSLDESANPNEGGALQFLKAIARFVSRNNGSE | – | – | binding (Uch2-TAP (S. pombe)): binds
3 | Bun107 (binding Ubp9 of 107 kDa) (protein, UniProt Q09731 1-962) MSVRKRYKVTYVLDSCNDQLGHRLDANCLVLGRYFSEQGSAPVTRALYSGGRDGQLFGWDIGYDYGKASQPLAKIQAHSAWVNDIALTHDSEGVISCSSDSTVKLWKPHVLNASCLSTIGEHTDYVKRVSIPKYSKSPLVASGGLDKRIIVWDYNVGQEVMRFEQLPDCSLVVGPRSGVYSLAANNNIIANGGLQKDIQLWDCVSKKRITDLVGHTDNVRDILISDDGRTILTASSDATIKLWSLRAQKCLFSFIAHSDSVWALYSEHPDLKVFYAGDRSGLITRTDIRNQPNNQSCTAICKQDAPVSDIVARQSFIWSTSRDGSILRWKDEPLFNQDVGAALSKHTSSHLSVSSDCPSRHSSDIRNHSCPTLYHDDAEDIYYDLHHTESYSNINLTKTPDYVIHGGIGLLKYRMLGDRRHVLTEDAVGNKCLWDILACKQAGEFDKSEDFEKIVQSLDTVQAIPRWASVNCLLGILAVTLDENHYMDAEIYADECPLLKVDSPSDKRINLGVWILKNLFREFIDAELHRDLKFRQNLDVVRSEAKKQIEAQREEARKGNVNMPSALSPLRIRSRPSPLSLPPEPLLSPTIDYSATPFPLEPPPESPGPSLQIPSNNPVYTNLTDTDSMMGAPDYFSIPARQNRNRKPHTEVVGSPTVVRTKEIIPPKVTREGSFMGRLKKLGRSKSSKSLQTDFMKASVERAASSRVFSTGTSVTSPQALSKTNNTVNNAANTENNTLAKDKQQTSEASSPGTPRELKTTGELIEDLHEQYVHFKDKDTVLSLMKPPNDDTFPMLNLSSQITVIISEESPEAGNSRDIYRSTLENMADDIDLLENIMPFWLGRLLLLNEFPSKTAPTVNFTLQPFPGSGLPLIVNENTRLSASAMLRAQKIMDYSYSKLSQQRKDVSSLQFRCKDVVVTPKMTLATVKARIWRSGDDVVFHYDVAPRSVSEIVDKTQSLNI | – | binds | –
4 | Pob1 (protein, UniProt O74653 1-871) MASQRFVIALHSFPGKSSDELPLVEGRKYLLIKMDEEFGDGWWEGEDEQGNRGIFPASHVELISDERSDSSDSRRGKEDFSISTAEVTRSSLSSSRSTSSRSDKDSEKLYSNNSLSSSHSSILNGPLDSLSKPSVPSNFNSMFPSSKQEGPSPLLDNQPSSDLSNFNTIDADYNNASASTSAPATSASLKKVLSAEDSVRETITDIETALQNMSTSASRTPNDSSPLPYIENRPASSLAVSEKIQNVPNWSTEEVVEWLMNAGLGSVAPNFAENEITGEILLGLDSNVLKELNITSFGKRFEVLRKIQQLKDSYEQSLYEEYPQFAEPISVSQSSDSSSSIPKKSNDEAGGSPSKSSPTRPGFNDYVNRPTSVMPSLSNMIVSPDLDSSPSTDWNQYVIPPLATPSSRNSKSTQSAVPENVSRFDSNEPSATSPILKRSSPTDSISQNSGLPSRLTEPISSPSTSSIDVDKEGTSFPGLPYHSSKGNLYAPQPSSNVPTKFTGGASESSSVPPRPIPSAMKGKAPASAISIEALEELDPPKITTIDGESPSSISSRLPSSNLEQGSSSSVTKSPESMPDPSAKASSPVTSKGVSINEKSAVNNYATPLSKPQPKDTKGSKLGNTFVAPSPAASLPASPPVGTELKTRPTLRSVASSPLNKEPIGKRKSKRDIFGRQKVLPTGISEGLSNIPAKEAIKTADCHGWMRKRSDRYGVWKSRYFVLKGTRLSYYHSLNDASEKGLIDMTSHRVTKTDDIVLSGGKTAIKLIPPAPGAAKAAVMFTPPKVHYFTCENNEELHRWSSAFLKATVERDMSVPVLTTSRMPTISLSKAKELRTRPPSLLIDDENEANLTSSIGLKKNAKQKNKKSSKQK | – | binds | –
5 | Sgf73 (protein, UniProt O94397 1-344) MLTEQQTLELFPENWERNEQVLLKYPDGLPKDVLADQRVDNTESQVKDEITSNITNQTQILLPADSFPQYGSYPNNSELDYVVCTKCDRPFLSEYIEDHHSSCNGIKPPKPQFEPVANSQVLNKDVNNGNNAPIKNGVKSTAKGSAGNHEKNSVNGQKNPEMPPKRRKTEENKKPTKSALPKKEASKKKNPKVKGPVDVEKQCGVLLPNGQMCARSLTCKTHSMSSKRAVPGRSQPYDVLLAACQKKNQVKIQRQILETAKESEDNQHQAPVDSDEEVSFIMNVLQKSGNQPLEQKVFLPVKRRHSYFRTRELIAAAFRHGEQGMQVTGTILGRVIPFSARQPL | binds | – | –
6 | Sgf29 (protein, UniProt Q9USW9 1-244) MVRPINAEEDVTSMWVKFHESLNPIRSSLIKQEECYKTVDGDDNPIEERIKACDAGIQTSEEQKKELEHTMQSLEMIINVLEKANEKPVITNSPLTRSRRNRGTSFTANTVTFTPGMSVAFKLPYTRHNEGGDWIQCIIIKVTGEGAKQRFEVQDPEPDDDGNAGQIYKTTANHLIQIPAKGTPLPPISPKTNVLARYPETTTFYRAEVIRTLPDGSCKLRFEGEEEVGKETVVERHLVLEYNG | binds | – | –

Results are given in words; binding and its absence hold for the method and conditions named. In cells and extracts the contact can be indirect. These calls come from enrichment with a bait or labelling near it, and not all partners need be listed.
